# The list shows a part of the results. These are further read-outs of the screen, such as a control signal, another cell line or another target. No call is given for them. The list favours compounds with an active or inconclusive main result. The note in brackets gives the kind of curve behind each potency; many fits are weak.
# Test: qHTS Assay to Find Inhibitors of Chronic Active B-Cell Receptor Signaling
# Conditions: ABC-DLBCL IkBa-CBG/CBR reporter, luminescence ratio (green luciferase fused to IkBa over red control in TMD8 lymphoma cells), 4 h
# In short: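 Concentration-response series (up to 46 uM) were applied to TMD8 dual-reporter cells for 4 h at 37C with doxycycline. Green/red ratio, after filter-overlap correction, defined %Activity; red signal alone was normalised to basal cells and zero luminescence.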
# [1] = measured here: CBR red luminescence, cell number
# [2] = measured here: IkBa-CBG green luminescence
SMILES,AC50 [1],AC50 [2]
CCOC(=O)N1CCN(C(=O)COc2cccc3c2CCN(CC)C3=O)CC1,"12.6 µM [falling, partial curve, poor fit]",
CCOC(=O)[C@H]1[C@H]2COc3ccc(OC)cc3[C@@H]2N2C(=O)CN(Cc3ccccc3)C(=O)[C@@]12C,"8.2 µM [falling, partial curve]",
CC(C)CC(=O)Nc1ccc(C(=O)Cn2nc(C(=O)O)c3ccccc3c2=O)cc1,"29.1 µM [rising, single point]",
COc1cccc(NC(=O)Cc2cccs2)c1,"0.794 µM [rising, full curve, poor fit]",
O=C(COC(=O)c1ccc(Cl)c(S(=O)(=O)N2CCCCCC2)c1)Nc1ccccc1,"29.1 µM [falling, single point]",
N/C(=N\OC(=O)c1ccco1)c1cccc([N+](=O)[O-])c1,"2.51 µM [rising, full curve, poor fit]",
C/C(=C\c1ccccc1)C(=O)c1c(C)cc(C)[nH]c1=O,"35.5 µM [falling, single point]",
CC(=O)NCC(=O)OCC(=O)c1ccccc1,"29.1 µM [rising, single point]",
CCOC(=O)c1c(C)[nH]c(C)c1C(=O)CSc1nnnn1-c1ccccc1,"16.4 µM [rising, single point]","32.6 µM [falling, partial curve, poor fit]"
Cc1ccsc1-c1nc(CSCC(=O)N2CCN(c3ccccc3)CC2)c(C)o1,"0.461 µM [falling, full curve]",
CC(C)(C)[C@@H]1C=C(C(=O)NC2CC2)O[C@H](OCc2ccc(CO)cc2)C1,"6.31 µM [rising, single point]",
O=C(NCCCn1ccnc1)c1ccc2c(c1)OCCO2,"7.94 µM [falling, partial curve, poor fit]",
COCCN(C(=O)COC(=O)C1CCC(C(C)(C)C)CC1)c1c(N)n(Cc2ccccc2)c(=O)[nH]c1=O (centres undefined),"32.6 µM [falling, partial curve, poor fit]",
CCOC(=O)c1ccc(N2CSC3=C(C#N)C(c4ccc(OC)cc4OC)CC(=O)N3C2)cc1 (centres undefined),"6.51 µM [rising, single point]",
Cn1c(NNC(=O)/C=C/c2ccc3c(c2)OCO3)cc(=O)n(C)c1=O,"0.891 µM [falling, full curve, poor fit]",
CC(C)(C)NC(=O)c1ccc2c(c1)C(=O)N(C1CCCCC1)C2=O,"13 µM [rising, partial curve]",
O=C(OCc1nnc(-c2ccccc2)o1)c1ccc2c(c1)C(=O)N(CCc1ccccc1)C2=O,"32.6 µM [falling, single point]",
COC(=O)CC1NCCc2cc(OC)c(OC)cc21 (centres undefined),"6.31 µM [falling, partial curve, poor fit]",
O=C(Nc1ccc(Cl)cc1)OCc1cc(-c2ccccc2)on1,"0.794 µM [rising, partial curve, poor fit]",
O=C1CC(c2ccc(F)cc2)CC2=C1C(c1ccc([N+](=O)[O-])o1)Nc1ccccc1N2 (centres undefined),"10 µM [falling, partial curve, poor fit]",
COc1cc(/C=C/C(=O)c2ccc(O)cc2)ccc1OCC#N,"20.6 µM [falling, partial curve, poor fit]",

# Quoted from the listing:
# AC50 [1], `O=C(COC(=O)c1ccc(Cl)c(S(=O)(=O)N2CCCCCC2)c1)Nc1ccccc1` reads 29.1 µM [falling, single point]
# AC50 [1], `COCCN(C(=O)COC(=O)C1CCC(C(C)(C)C)CC1)c1c(N)n(Cc2ccccc2)c(=O)[nH]c1=O` (centres undefined) reads 32.6 µM [falling, partial curve, poor fit]
# AC50 [1], `O=C(NCCCn1ccnc1)c1ccc2c(c1)OCCO2` reads 7.94 µM [falling, partial curve, poor fit]
# AC50 [1], `COc1cccc(NC(=O)Cc2cccs2)c1` reads 0.794 µM [rising, full curve, poor fit]

# (listing goes on)

SMILES,AC50 [1],AC50 [2]
Cc1cc(C(=O)COC(=O)CNC(=O)c2ccco2)c(C)n1Cc1ccco1,"18.4 µM [rising, single point]",
O=C(N/N=C/c1cccnc1)c1ccc(NC(=O)c2ccccc2Cl)cc1,,"20 µM [rising, partial curve, poor fit]"
c1cncc(CNc2nc(-c3cccnc3)nc3ccccc23)c1,"5.62 µM [rising, single point]",
CCOc1ccccc1N=c1oc2cc(O)ccc2cc1C(=O)NCC1CCCO1 (centres undefined),"0.58 µM [falling, full curve]",
O=S(=O)(c1ccccc1)N1CCN=C1SCc1c(F)cccc1Cl,"5.01 µM [rising, single point]",
O=C1C2C3C=CC(CNS(=O)(=O)c4ccccc4)(O3)C2C(=O)N1c1ccc(Cl)cc1 (centres undefined),"18.4 µM [falling, single point]",
COc1ccc(CNn2c(-c3cccs3)nc3ccccc3c2=O)cc1OC,"14.1 µM [falling, single point]",
O=C(NCc1ccco1)c1ccc(COc2ccc(Cl)cc2)cc1,"29.1 µM [rising, single point]",
O=C(N/N=C/c1ccc(O)c([N+](=O)[O-])c1)C(O)(c1ccccc1)c1ccccc1,"10 µM [falling, partial curve]",
CCN1C(c2ccc(F)cc2)=CS/C1=C(\C#N)c1nnc2n1-c1ccccc1SC2,"25.1 µM [falling, single point]",
CCOc1ccc(NS(=O)(=O)c2cc(NC(=O)CCC(=O)c3cccs3)ccc2Cl)cc1,"35.5 µM [falling, single point]",
Cc1cc(C(F)(F)F)n2nc(C)c(-c3ccc(Cl)cc3)c2n1,"1.64 µM [rising, partial curve, poor fit]","29.1 µM [falling, partial curve, poor fit]"
C/C(=N\NC(=O)c1ccc(Cl)cc1)c1cccc(NC(=O)C(C)C)c1,"2.51 µM [falling, partial curve, poor fit]",
Cn1ncc2c(Nc3cccc(Cl)c3)nc(Nc3cccc(Cl)c3)nc21,"6.31 µM [falling, full curve]",
Cc1cccc(CC2S/C(=N/c3ccccn3)NC2=O)c1 (centres undefined),"0.231 µM [rising, full curve, poor fit]",
Cc1nnc(SCC(=O)Nc2nc3c(s2)CC(C)CC3)s1 (centres undefined),"23.1 µM [falling, partial curve, poor fit]",
c1ccc(-n2c(SCc3nc(-c4cccs4)no3)nnc2-c2ccco2)cc1,"29.1 µM [falling, single point]",
CC[C@@]12C(=O)N(c3ccccc3)C(=O)N1[C@H](c1cccc(C)c1)[C@@H]1C(=O)N(Cc3ccccc3)C(=O)[C@@H]12,"11.2 µM [falling, single point]",
CCCC(C)C(=O)Nc1nc(C)c(-c2csc(Nc3ccc(Cl)cc3)n2)s1 (centres undefined),"3.16 µM [rising, full curve, poor fit]",
O=C(O)c1ccccc1C(=O)Nc1ccccc1,"0.116 µM [rising, full curve, poor fit]",
COC(=O)Cn1c(C)c(C#N)c2ccccc21,"25.9 µM [rising, single point]",

SMILES,AC50 [1],AC50 [2]
Oc1ccc(Cl)cc1-c1cc(-c2ccccc2Cl)[nH]n1,"20.6 µM [rising, partial curve]",
COc1ccc(-c2cc(=O)oc3cc(OCC(=O)Nc4ccccn4)ccc23)cc1,"2.82 µM [rising, full curve, poor fit]",
O=C(CCN1CCCCC1)c1ccc2c(c1)OCCO2,"8.91 µM [falling, partial curve, poor fit]",
COC(=O)C1C(O)CCC2CN3CCc4c([nH]c5ccccc45)C3CC21 (centres undefined),"12.6 µM [falling, partial curve, poor fit]",
COc1ccccc1NC(=O)C(=O)NNC(=O)COc1ccc2ccccc2c1,"7.08 µM [falling, partial curve]",
Nc1cccc(S(=O)(=O)c2ccc(N)c(N)c2)c1,"22.4 µM [falling, single point]",
O=C(/C=C/Nc1ccc(F)cc1F)c1ccco1,"25.1 µM [falling, single point]",
CCOC(=O)CNC(=O)CN1C(=O)CC(c2ccco2)Sc2ccccc21 (centres undefined),"1.12 µM [rising, full curve, poor fit]",
COc1ccc(N2C(=NC(=O)C3CC3)SC3CS(=O)(=O)CC32)cc1Cl (centres undefined),"0.708 µM [falling, full curve, poor fit]",
CCOC(=O)c1nc(C)[nH]c1C(=O)OCC,"4.61 µM [rising, full curve, poor fit]",
COc1ccc(NC2=Nc3cccc4cccc2c34)cc1,"18.4 µM [falling, partial curve, poor fit]",
CC(C(=O)NC1CCCC1)N(C(=O)c1ccc(-c2ccccc2)[nH]1)c1ccccc1F (centres undefined),"10 µM [falling, partial curve]",
CCOCCn1c(SC)nc2c1c(=O)[nH]c(=O)n2C,"20.6 µM [rising, partial curve]",
CCOc1ccc2[nH]c3c(N4CCN(c5ccccn5)CC4)ncnc3c2c1,"0.731 µM [falling, full curve, poor fit]",
COC(=O)c1ccccc1NC(=O)CSc1nc(O)c(-c2ccccc2)c(=O)[nH]1,"22.4 µM [falling, partial curve, poor fit]",
c1ccc(-c2nnc(SCc3nc4ccccc4[nH]3)n2Cc2ccco2)nc1,"0.708 µM [rising, full curve]",
CC(=O)c1ccc(OCC(O)CN2C(C)(C)CC(O)CC2(C)C)cc1 (centres undefined),"6.51 µM [falling, single point]",
O=c1/c(=C\c2cccc(O)c2)sc2nc(-c3ccccc3)c(-c3ccccc3)n12,"22.4 µM [rising, single point]",
COC(=O)Cc1ccc(OCc2ccc(Cl)nc2)cc1,"2.24 µM [rising, partial curve, poor fit]",
CC(=O)Nc1ccc(S(=O)(=O)Nc2nc3ccc([N+](=O)[O-])cc3s2)cc1,"2.82 µM [falling, full curve]",

# Source: PubChem BioAssay AID493014 (National Center for Advancing Translational Sciences (NCATS), 2011)
